Test [1] addresses GST-GluR2NT (V22-E545) (UniProt P19491). Kind of test: affinity purification with mass spectrometry; GST fusion proteins used to pull down proteins from solubilized rat hippocampal tissue; SDS-PAGE, Coomassie staining, ~37 kD band identified by LC-MS/MS; only the target purified.
Test [2] addresses GST-GluR1NT (A19-E538) (UniProt P19490). The test is described as above.

The chains behind the UniProt entries cited, without tags or fusion partners. Residues count along the entry.
UniProt P19491, residues 22-545: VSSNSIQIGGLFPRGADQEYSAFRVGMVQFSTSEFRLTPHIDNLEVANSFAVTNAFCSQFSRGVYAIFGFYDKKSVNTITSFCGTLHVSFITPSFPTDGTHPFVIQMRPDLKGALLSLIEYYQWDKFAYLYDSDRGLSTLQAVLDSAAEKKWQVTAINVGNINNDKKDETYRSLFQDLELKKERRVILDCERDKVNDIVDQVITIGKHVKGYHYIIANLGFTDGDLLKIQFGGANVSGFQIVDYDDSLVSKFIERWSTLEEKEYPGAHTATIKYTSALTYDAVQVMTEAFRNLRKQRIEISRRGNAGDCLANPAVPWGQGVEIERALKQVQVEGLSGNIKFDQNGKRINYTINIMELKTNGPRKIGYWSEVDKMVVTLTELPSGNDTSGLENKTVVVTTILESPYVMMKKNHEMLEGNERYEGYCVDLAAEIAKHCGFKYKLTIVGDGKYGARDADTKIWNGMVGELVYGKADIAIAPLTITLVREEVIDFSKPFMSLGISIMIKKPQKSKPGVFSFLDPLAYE
UniProt P19490, residues 19-538: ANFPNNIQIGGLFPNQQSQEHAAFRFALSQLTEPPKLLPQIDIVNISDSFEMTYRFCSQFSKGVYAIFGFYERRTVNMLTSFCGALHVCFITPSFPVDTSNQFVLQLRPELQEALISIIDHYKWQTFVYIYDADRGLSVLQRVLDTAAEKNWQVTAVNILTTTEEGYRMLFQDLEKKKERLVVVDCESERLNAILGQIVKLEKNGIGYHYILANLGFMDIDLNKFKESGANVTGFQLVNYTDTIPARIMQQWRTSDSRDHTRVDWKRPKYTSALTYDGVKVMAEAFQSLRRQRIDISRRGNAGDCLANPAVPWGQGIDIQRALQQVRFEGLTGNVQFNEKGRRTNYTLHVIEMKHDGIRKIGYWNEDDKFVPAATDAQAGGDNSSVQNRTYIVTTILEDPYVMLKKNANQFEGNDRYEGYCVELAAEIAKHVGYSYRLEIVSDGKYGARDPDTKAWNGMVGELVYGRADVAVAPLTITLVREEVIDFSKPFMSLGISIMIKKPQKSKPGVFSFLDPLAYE
UniProt P04797: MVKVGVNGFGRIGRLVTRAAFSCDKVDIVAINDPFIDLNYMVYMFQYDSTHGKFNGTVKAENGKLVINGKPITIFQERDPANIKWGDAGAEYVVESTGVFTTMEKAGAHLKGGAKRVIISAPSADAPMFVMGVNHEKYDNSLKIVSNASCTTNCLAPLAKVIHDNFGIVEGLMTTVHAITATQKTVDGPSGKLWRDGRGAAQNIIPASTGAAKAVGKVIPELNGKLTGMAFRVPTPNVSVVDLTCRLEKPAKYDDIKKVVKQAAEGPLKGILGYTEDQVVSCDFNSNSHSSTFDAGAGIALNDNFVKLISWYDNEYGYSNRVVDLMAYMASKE

No constants are given. Whether binding was seen depends on the method and setting. Binding seen in cells or lysates may run through a third protein. A yes stands for co-enrichment or nearness to the bait. Other partners may have been found. For some assays here: A no says only that the protein was not detected with the bait.

Regarding “GAPDH (glyceraldehyde-3-phosphate dehydrogenase), rat, endogenous (from UniProt P04797 1-333) (enzyme)”, the binding entry in test [1] is reported as “binds”; in test [2] it was “no binding”.
